Among the data in publication PMC10000386 are binding values, retold here.

By UniProt entry, the sequences of proteins in these tests, tags left out. Where a name states a change or a piece, a line headed by the entry shows the natural chain unless it says otherwise.
UniProt Q07812: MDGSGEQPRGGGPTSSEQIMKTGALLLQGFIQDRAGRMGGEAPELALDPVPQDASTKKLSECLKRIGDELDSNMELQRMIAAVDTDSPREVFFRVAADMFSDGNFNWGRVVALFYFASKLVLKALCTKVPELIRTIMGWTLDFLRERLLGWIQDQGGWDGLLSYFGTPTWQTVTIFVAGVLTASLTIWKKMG
UniProt P10415: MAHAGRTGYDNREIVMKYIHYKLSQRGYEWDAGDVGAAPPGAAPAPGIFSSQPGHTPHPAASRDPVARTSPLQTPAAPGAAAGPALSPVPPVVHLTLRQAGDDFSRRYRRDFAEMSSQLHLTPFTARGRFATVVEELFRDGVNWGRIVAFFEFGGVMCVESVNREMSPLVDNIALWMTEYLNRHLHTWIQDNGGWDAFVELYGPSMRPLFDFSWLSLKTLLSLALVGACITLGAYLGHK
UniProt Q9BXH1: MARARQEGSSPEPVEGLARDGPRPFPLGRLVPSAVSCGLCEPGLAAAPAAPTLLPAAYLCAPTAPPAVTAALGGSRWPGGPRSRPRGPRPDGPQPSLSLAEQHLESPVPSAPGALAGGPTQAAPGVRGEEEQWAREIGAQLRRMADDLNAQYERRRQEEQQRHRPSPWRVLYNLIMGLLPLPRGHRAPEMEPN

Results are given in words; binding and its absence hold for the method and conditions named. Binding seen in cells or lysates may run through a third protein. Some binding calls cover weakened binding; strength is not graded here.

Experiment [1] addresses Bax D33A (human) (UniProt Q07812). Description: split reporter; BiFC: VN- and VC-Venus fragment fusions (N-terminal) co-transfected in HeLa cells with an mRFP vector, 30 µM Z-VAD-fmk, 37 °C, 24 h; Venus/mRFP mean fluorescence ratio of mRFP-positive cells by flow cytometry; in some experiments ABT-199, A-1155463 or S63845 added 1 h after transfection (reduced the complexes of Bcl-2, Bcl-XL or Mcl-1 with Bim, Puma and Noxa). In general terms: A flow cytometer gives signals particle by particle.

Experiment [2] deals with Bax K21E (human) (UniProt Q07812). Described as above.

Turning to Bcl-2 (from UniProt P10415 1-239), the binding entry in experiment [1] is “binds”. As to Puma (from UniProt Q9BXH1 1-193), the binding result in experiment [1] and in experiment [2] was “binds” each time.
